The list shows a part of the results. Shown are side measurements of this screen, not its main read-out; they come without a call. Compounds called inactive in the main read-out are mostly missing here. Words in brackets tell the shape of the fitted curve; partial curves, single points and poor fits give uncertain potencies.
Assay: qHTS Assay to Find Inhibitors of Chronic Active B-Cell Receptor Signaling
Conditions: ABC-DLBCL IkBa-CBG/CBR reporter, luminescence ratio (green luciferase fused to IkBa over red control in TMD8 lymphoma cells), 4 h
In short: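 TMD8 human ABC-DLBCL cells with doxycycline-inducible IκBα–green luciferase fusion and unfused red luciferase, in 0.5% FBS medium; compounds up to 46 uM, 4 h at 37C. Green/red luminescence ratio, filter-overlap corrected, fitted to concentration-response curves.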

[1] = measured here: CBR red luminescence, cell number
[2] = measured here: IkBa-CBG green luminescence

CCSc1ccc(C(=O)Nc2cccc(C)n2)cc1[N+](=O)[O-]
AC50 [1]: 0.731 µM [rising, full curve, poor fit]

CCC(Sc1nc2n[nH]c(C)c2c(=N)n1-c1cc(Cl)ccc1C)C(=O)N1CCOCC1 (stereo not given)
AC50 [1]: 29.1 µM [rising, single point]

CCOc1nc(C)ccc1-c1noc(-c2ccccn2)n1
AC50 [1]: 7.08 µM [rising, partial curve]

CCN(CC)CCCNC(=O)c1cc2c(-c3cccc(OC)c3)nn(C)c2s1
AC50 [1]: 20 µM [falling, partial curve, poor fit]

O=C(Nc1ccc(-c2ccc3nncn3n2)cc1)C1CCCCC1
AC50 [1]: 12.6 µM [falling, single point]

CCOc1ccc(N=c2scc(-c3ccccc3)n2CCO)cc1
AC50 [1]: 5.17 µM [rising, full curve]

CC(=O)c1sc(NC(=O)CCS(=O)(=O)c2ccccc2)nc1C
AC50 [1]: 11.2 µM [falling, partial curve]

COc1ccc(NC(=O)CSc2nnc(COc3ccccc3)n2Cc2ccco2)cc1OC
AC50 [1]: 12.6 µM [falling, single point]

COc1ccc(CCNC(=O)c2ccccc2Cl)cc1OC
AC50 [1]: 35.5 µM [falling, single point]

CCc1ccc(OCC2NCCc3cc(OC)c(OC)cc32)cc1 (stereo not given)
AC50 [1]: 11.2 µM [falling, partial curve]

O=C(C1CCC1)N(CCc1ccccc1)Cc1nc2ccccc2c(=O)[nH]1
AC50 [1]: 11.2 µM [falling, single point]

Clc1ccc(SCc2cc(-c3ccc(Cl)cc3)on2)cc1
AC50 [1]: 25.9 µM [rising, single point]

Cc1cc2cc(CNC(=O)c3ccc4c(c3)OCO4)ccc2[nH]1
AC50 [1]: 20 µM [falling, single point]

O=C(CCC1CCCC1)Nc1ccc(C(=O)NCc2cccnc2)cc1
AC50 [1]: 1.58 µM [rising, partial curve, poor fit]

Cc1ccccc1CN1C[C@@H]2C[C@@H](c3cn[nH]c3-c3ccc(F)cc3)N3CCC[C@@]23C1=O
AC50 [1]: 11.2 µM [falling, single point]

Nc1nc(Cl)cc(-c2ccccc2)n1
AC50 [1]: 0.891 µM [falling, full curve, poor fit]

COc1ccc2c(c1)CCc1cnc(N)nc1-2
AC50 [1]: 31.6 µM [falling, single point]

Cn1c(=O)n(C)c2cc(NC(=O)COc3ccc(Cl)cc3)ccc21
AC50 [1]: 2 µM [rising, full curve]

COC(=O)N/N=C/c1cn(Cc2ccccc2F)c2ccccc12
AC50 [1]: 20 µM [falling, single point]

COc1ccc(N=Nc2c(C)n[nH]c2C)cc1
AC50 [1]: 1.58 µM [rising, partial curve, poor fit]
AC50 [2]: 7.08 µM [falling, partial curve, poor fit]

Cc1ccc(CS(=O)(=O)c2ncc(Cl)c(C(=O)Nc3ccc(OC(F)F)cc3)n2)cc1
AC50 [1]: 6.31 µM [falling, partial curve]
AC50 [2]: 11.2 µM [rising, partial curve]

CC(C)C(NC(=O)c1ccccc1F)C(=O)OCC(=O)c1ccc(F)cc1 (stereo not given)
AC50 [1]: 6.31 µM [rising, partial curve, poor fit]

CC1CCCN(C2(O)C(=O)Nc3ccc(Cl)cc32)C1 (stereo not given)
AC50 [1]: 11.2 µM [falling, partial curve, poor fit]

COc1cc(NC(=O)CSc2nc(=O)n(CCCN3CCOCC3)c3c2CCC3)cc(OC)c1
AC50 [1]: 7.31 µM [falling, partial curve, poor fit]

CN(C)CCOCCOc1ccc(Cl)c2ccccc12
AC50 [1]: 14.1 µM [falling, single point]

c1csc(C2C3=C(Nc4ncnn42)c2ccccc2OC3)c1 (stereo not given)
AC50 [1]: 8.91 µM [falling, partial curve, poor fit]

COc1ccc(C(C)=O)cc1CSc1nnc(Nc2c(C)cccc2C)s1
AC50 [1]: 18.4 µM [falling, single point]

COc1ccc([N+](=O)[O-])cc1NC(=O)c1csc(C)c1
AC50 [2]: 2.24 µM [rising, partial curve, poor fit]

CC(C)OC(=O)c1c(NC(=O)CCn2nnc3ccccc32)sc2c1CCCC2
AC50 [1]: 3.26 µM [falling, full curve, poor fit]

CC1=NN(C(=O)c2nn(C)cc2Br)C(O)(C(F)(F)F)C1 (stereo not given)
AC50 [1]: 14.6 µM [falling, partial curve]

N=C1CCC(=N)c2c1c(O)c1ccccc1c2O
AC50 [1]: 3.55 µM [falling, partial curve, poor fit]

Cn1c(=NC(=O)CS(=O)(=O)c2ccccc2)sc2ccccc21
AC50 [1]: 29.1 µM [falling, single point]

CCc1ccc(-c2nc(SCC(=O)N(CC)C3CCS(=O)(=O)C3)n[nH]2)cc1 (stereo not given)
AC50 [1]: 0.00517 µM [rising, full curve, poor fit]

N#CCCn1cc(/C=N/NC(N)=S)c(-c2ccc(Br)cc2)n1
AC50 [1]: 35.5 µM [falling, single point]
AC50 [2]: 7.94 µM [falling, partial curve]

CC(Sc1cccc[n+]1[O-])C(=O)Nc1cccc(S(=O)(=O)N2CCOCC2)c1 (stereo not given)
AC50 [1]: 29.1 µM [falling, single point]
AC50 [2]: 25.9 µM [falling, single point]

O=C(CSc1nnnn1-c1ccccc1)Nc1nc(-c2ccccc2)ns1
AC50 [1]: 5.8 µM [rising, full curve]

NN/C(=C\[N+](=O)[O-])Nc1ccc(Cl)cc1
AC50 [1]: 7.08 µM [rising, partial curve]

Cc1cccc(NC(=O)CCC(=O)N2CCOCC2)n1
AC50 [1]: 5.17 µM [rising, single point]

COc1ccccc1C(=O)Nc1ccc2c(c1)CCCN2C(=O)c1ccccc1
AC50 [1]: 3.55 µM [rising, partial curve, poor fit]

Cc1nonc1C(=O)N/N=C/c1ccc([N+](=O)[O-])o1
AC50 [1]: 35.5 µM [falling, single point]

N/C(=N\OC(=O)CCc1ccccc1)c1ccccc1Cl
AC50 [1]: 3.16 µM [rising, partial curve, poor fit]

CN1c2ccc([N+](=O)[O-])cc2C(C)(C)C12C=Cc1cc(C(=O)O)ccc1O2 (stereo not given)
AC50 [1]: 20 µM [falling, single point]

N#Cc1c(-c2ccccc2)cc(C2CC2)nc1N
AC50 [1]: 12.6 µM [rising, partial curve]
AC50 [2]: 15.8 µM [falling, partial curve, poor fit]

Cc1c(-c2nc(-c3cccnc3)no2)cccc1[N+](=O)[O-]
AC50 [1]: 7.94 µM [rising, partial curve, poor fit]

NC(=O)[C@@H]1CC2(CC(c3cccc(NC(=O)CC(c4ccccc4)c4ccccc4)c3)=NO2)CN1C(=O)c1ccc(Cl)cc1 (stereo not given in full)
AC50 [2]: 14.1 µM [rising, partial curve, poor fit]

O=C(/C=C/c1ccco1)Nc1ccc(F)cc1
AC50 [1]: 5.8 µM [falling, partial curve]

Nc1nc(COC(=O)CCC(=O)c2ccc(Cl)cc2)nc(Nc2ccccc2)n1
AC50 [1]: 29.1 µM [falling, single point]

COc1ccccc1NC(=O)Nc1ccc2c(c1)nc(C)n2C
AC50 [1]: 7.94 µM [falling, partial curve]

CCN(CC(=O)Nc1c(F)cccc1F)C(=O)c1ccc(COc2ccccc2)o1
AC50 [1]: 20.6 µM [rising, single point]

Cc1ccc(NC(=O)CN2CCN(CCN=CC3=C(O)CC(C)(C)CC3=O)CC2)cc1
AC50 [1]: 12.6 µM [falling, partial curve, poor fit]

CCC(C)NCCOc1ccc(C(C)(C)c2ccccc2)cc1 (stereo not given)
AC50 [1]: 17.8 µM [falling, single point]

O=c1c2c(nc3cc(-c4ccccc4Cl)[nH]n13)CCS2
AC50 [1]: 0.562 µM [falling, full curve]

O=[N+]([O-])c1ccc(C2=Nc3cc(Cl)ccc3OC2)cc1
AC50 [1]: 0.355 µM [rising, full curve, poor fit]

C=C(CC)C(=O)c1ccc(OCC(=O)O)c(Cl)c1Cl
AC50 [1]: 12.6 µM [falling, partial curve]
AC50 [2]: 7.94 µM [rising, partial curve, poor fit]

COC(=O)c1cc(OC)c(OC)cc1NC(=O)CCCCCN1C(=O)CCC1=O
AC50 [1]: 6.51 µM [falling, single point]

CCOc1ccc2nc(N3CCN(C(=O)c4ccc(S(=O)(=O)CC)cc4)CC3)sc2c1
AC50 [1]: 7.94 µM [falling, partial curve]

C=C(C)Cc1c(C)c(C#N)c2nc3ccccc3n2c1N1CCCCC1
AC50 [1]: 18.4 µM [rising, single point]

O=C(N/N=C/c1c[nH]c2ccccc12)c1cccs1
AC50 [1]: 11.2 µM [falling, partial curve, poor fit]

CC(=O)COc1ncn(-c2ccccc2)n1
AC50 [1]: 35.5 µM [rising, single point]

COc1ccc(/C=N/NC(=O)c2nonc2C)cc1
AC50 [1]: 5.8 µM [falling, partial curve]
AC50 [2]: 29.1 µM [rising, partial curve, poor fit]

Cc1nc2cc(-n3ccc(=O)cc3)ccc2n1-c1ccccc1
AC50 [1]: 1.84 µM [falling, full curve, poor fit]

CC(C)(CO)Nc1nc(Cl)nc(NC2CCCCC2)n1
AC50 [1]: 3.55 µM [falling, partial curve]

CC(=O)Nc1ccc(S(=O)(=O)N(C)c2ccc(OCC(=O)OCC(=O)Nc3ccc(OC(F)F)cc3)cc2)cc1
AC50 [1]: 12.6 µM [rising, single point]

Reference: PubChem BioAssay AID493014 (National Center for Advancing Translational Sciences (NCATS), 2011)
